Values from PubChem BioAssay AID504791 (Drosophila RNAi Screening Center, 2011)
The deposit covers about 23,000 reagents; shown is a random part of those with a known target gene and a result. In the full data, 199 (0.86%) got an active call. 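Plate-scaled ratios behind the calls are not deposited; printed light signals are raw; many rows marked increased or decreased are still called inactive.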 A number with no mark means an inactive call. Reagents against one gene are numbered here. Names joined by + are all predicted targets of the reagent. Not stated in the record: the direction of the score.

Purpose: 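Factors in Argonaute-based small RNA production and activity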 (primary screen)
System: Drosophila S2-derived reporter cells
Reagents: long dsRNA against Drosophila genes, about 150-250 ng dsRNA per well (siRNA assay); about 80-120 ng (miRNA assay)
Time to read-out: about 5 days (siRNA assay); about 4 days (miRNA assay)
Conditions: copper sulfate induction of reporters: 25 µM (siRNA assay); 200 mM stated (miRNA assay), 1-2 days before reading
Measured: 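Per-well ratio of Renilla over firefly light, expressed relative to that plate's average ratio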
Rule for the call: 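First-pass picks had plate-scaled ratios over 1.5 for the siRNA assay, over 1.6 for the miRNA assay, or under 0.6; two distinct dsRNAs had to score alike on retest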

| gene knocked down | reagent no. | stable siRNA reporter change | miRNA reporter change | stable assay Renilla, run 1 (luminescence) | stable assay firefly, run 1 (luminescence) |
| --- | --- | --- | --- | --- | --- |
| His4r (Histone H4 replacement) | 1 | reporter ratio lowered past the hit cutoff (active) | – | 7586 | 7.13e5 |
| CG7201 | 1 | – | – | 5835 | 3.78e5 |
| Ack-like (Activated Cdc42 kinase-like) | 1 | – | – | 7932 | 5.10e5 |
| Tdc2 (Tyrosine decarboxylase 2) | 1 | – | – | 7062 | 3.71e5 |
| TfIIEbeta (Transcription factor IIEbeta) | 1 | – | – | 5711 | 4.95e5 |
| CG15202 | 1 | – | – | 4895 | 4.12e5 |
| CG7420 | 1 | – | – | 36866 | 79031 |
| CG10474 | 1 | – | – | 6582 | 3.81e5 |
| Mct1 (Monocarboxylate transporter 1) | 1 | – | – | 6219 | 3.78e5 |
| Ssl1 (Suppressor of stem-loop mutation) | 1 | – | – | 8080 | 3.84e5 |
| Rab9Db + Rab9Fa | 1 | – | – | 5604 | 4.76e5 |
| Tpc2 | 1 | – | – | 6760 | 4.43e5 |
| Ekar (Eye-enriched kainate receptor) | 1 | – | – | 6719 | 3.38e5 |
| Zwilch | 1 | – | – | 6343 | 3.31e5 |
| CG40298 | 1 | – | – | 9777 | 7.23e5 |
| Rrp1 (Recombination repair protein 1) | 1 | – | – | 3704 | 4.08e5 |
| Ir64a (Ionotropic receptor 64a) | 1 | – | – | 5006 | 2.30e5 |
| Ir64a (Ionotropic receptor 64a) | 2 | – | – | 5975 | 3.20e5 |
| chas (chascon) | 1 | – | – | 5290 | 4.44e5 |
| chas (chascon) | 2 | – | – | 5475 | 4.33e5 |
| CG15914 | 1 | – | – | 5898 | 3.27e5 |
| COX3 (retired record) | 1 | – | – | 5034 | 3.89e5 |
| Tnpo-SR (Transportin-Serine/Arginine rich) | 1 | – | – | 16773 | 6.56e5 |
| Sln (Silnoon) | 1 | – | – | 5950 | 3.32e5 |
| fw (furrowed) | 1 | – | – | 4871 | 3.90e5 |
| CG17361 | 1 | – | – | 6998 | 3.61e5 |
| Pi4KIIalpha (Phosphatidylinositol 4-kinase II alpha) | 1 | – | – | 7758 | 4.33e5 |
| Pi4KIIalpha (Phosphatidylinositol 4-kinase II alpha) | 2 | – | – | 5951 | 3.90e5 |
| Pdp (Pyruvate dehydrogenase phosphatase) | 1 | – | – | 7544 | 3.68e5 |
| CG42360 | 1 | – | reporter ratio raised past the hit cutoff | 7942 | 3.26e5 |
| CG13862 | 1 | – | – | 7590 | 3.75e5 |
| Vm26Ac (Vitelline membrane 26Aac) | 1 | – | – | 7590 | 4.80e5 |
| CG5676 | 1 | – | – | 7423 | 4.93e5 |
| Tsp (Thrombospondin) | 1 | – | – | 12524 | 5.93e5 |
| Tsp (Thrombospondin) | 2 | – | – | 7842 | 4.28e5 |
| CG6415 | 1 | – | – | 6886 | 1.07e6 |
| VAChT (Vesicular acetylcholine transporter) | 1 | – | – | 4822 | 4.44e5 |
| VAChT (Vesicular acetylcholine transporter) | 2 | – | – | 7854 | 3.53e5 |
| dany (distal antenna-young) | 1 | – | – | 7647 | 3.16e5 |
| CG3603 | 1 | – | – | 6507 | 3.00e5 |
| CG16989 | 1 | – | – | 6240 | 3.29e5 |
| CG3632 | 1 | – | – | 6252 | 5.79e5 |
| CG3632 | 2 | – | – | 7578 | 5.44e5 |
| CG14644 | 1 | – | – | 6743 | 3.52e5 |
| CG4199 | 1 | – | – | 9737 | 6.94e5 |
| CG4199 | 2 | – | – | 9262 | 4.85e5 |
| CG30278 | 1 | – | – | 4703 | 4.67e5 |
| CG4622 | 1 | reporter ratio raised past the hit cutoff | – | 1.97e5 | 1.05e6 |
| Lamtor4 (Late endosomal/lysosomal adaptor, MAPK and MTOR activator 4) | 1 | – | – | 8025 | 4.78e5 |
| CG5160 | 1 | – | – | 6416 | 3.62e5 |
| Arr2 (Arrestin 2) | 1 | – | – | 7634 | 5.87e5 |
| 5-HT7 (5-hydroxytryptamine (serotonin) receptor 7) | 1 | – | – | 7235 | 4.21e5 |
| obe (obelus) | 1 | – | – | 9222 | 6.63e5 |
| Plap (Phospholipase A2 activator protein) | 1 | – | – | 13536 | 4.50e5 |
| CG1724 | 1 | – | – | 6384 | 4.67e5 |
| CG43367 + CG32252 (retired record) | 1 | – | – | 8612 | 5.72e5 |
| Sr-CI (Scavenger receptor class C, type I) | 1 | – | – | 3220 | 3.89e5 |

No new results follow: 6 of the entries above.
| gene knocked down | reagent no. | stable siRNA reporter change | miRNA reporter change | stable assay Renilla, run 1 (luminescence) | stable assay firefly, run 1 (luminescence) |
| --- | --- | --- | --- | --- | --- |
| Rrp1 (Recombination repair protein 1) | 1 | – | – | 3704 | 4.08e5 |
| Ir64a (Ionotropic receptor 64a) | 1 | – | – | 5006 | 2.30e5 |
| Ir64a (Ionotropic receptor 64a) | 2 | – | – | 5975 | 3.20e5 |
| chas (chascon) | 1 | – | – | 5290 | 4.44e5 |
| chas (chascon) | 2 | – | – | 5475 | 4.33e5 |
| CG15914 | 1 | – | – | 5898 | 3.27e5 |
